Source: paper PMC3621867
These are yes or no findings as the source states them, for the method shown. In cells and extracts the contact can be indirect. A yes stands for co-enrichment or nearness to the bait. Other partners may have been found.

Chains of the proteins cited; added tags and fusions are not shown.
UniProt Q86YC2: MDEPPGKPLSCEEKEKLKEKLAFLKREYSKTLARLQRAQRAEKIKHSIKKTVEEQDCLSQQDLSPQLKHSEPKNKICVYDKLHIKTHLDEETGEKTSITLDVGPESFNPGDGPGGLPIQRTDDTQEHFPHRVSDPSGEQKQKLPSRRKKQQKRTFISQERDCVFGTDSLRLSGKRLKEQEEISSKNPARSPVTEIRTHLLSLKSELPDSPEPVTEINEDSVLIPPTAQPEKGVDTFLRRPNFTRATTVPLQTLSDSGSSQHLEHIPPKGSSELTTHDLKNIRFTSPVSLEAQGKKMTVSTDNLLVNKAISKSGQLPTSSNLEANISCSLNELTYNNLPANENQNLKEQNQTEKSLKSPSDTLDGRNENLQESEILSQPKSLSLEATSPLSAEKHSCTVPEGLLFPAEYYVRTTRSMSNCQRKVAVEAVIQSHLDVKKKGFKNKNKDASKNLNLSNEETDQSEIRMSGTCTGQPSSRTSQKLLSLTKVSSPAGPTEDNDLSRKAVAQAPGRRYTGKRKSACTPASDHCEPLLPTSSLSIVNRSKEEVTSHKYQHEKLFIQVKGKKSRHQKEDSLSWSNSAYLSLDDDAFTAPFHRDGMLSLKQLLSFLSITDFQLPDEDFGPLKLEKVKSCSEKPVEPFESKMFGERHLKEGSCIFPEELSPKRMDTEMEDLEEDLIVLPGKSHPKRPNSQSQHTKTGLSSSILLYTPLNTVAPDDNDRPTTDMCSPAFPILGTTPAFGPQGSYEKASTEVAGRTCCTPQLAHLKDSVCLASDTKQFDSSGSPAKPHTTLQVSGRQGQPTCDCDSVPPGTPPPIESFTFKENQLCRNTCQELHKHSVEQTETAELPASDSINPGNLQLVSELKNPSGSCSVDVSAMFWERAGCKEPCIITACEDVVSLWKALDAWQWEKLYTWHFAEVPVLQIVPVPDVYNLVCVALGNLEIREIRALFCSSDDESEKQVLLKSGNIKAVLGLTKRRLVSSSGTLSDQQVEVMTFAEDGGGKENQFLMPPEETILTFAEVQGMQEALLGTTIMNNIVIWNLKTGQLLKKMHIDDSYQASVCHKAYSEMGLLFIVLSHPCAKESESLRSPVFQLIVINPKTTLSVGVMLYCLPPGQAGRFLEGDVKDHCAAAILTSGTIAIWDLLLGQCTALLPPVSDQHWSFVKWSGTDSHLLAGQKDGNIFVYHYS
UniProt Q9UBU8: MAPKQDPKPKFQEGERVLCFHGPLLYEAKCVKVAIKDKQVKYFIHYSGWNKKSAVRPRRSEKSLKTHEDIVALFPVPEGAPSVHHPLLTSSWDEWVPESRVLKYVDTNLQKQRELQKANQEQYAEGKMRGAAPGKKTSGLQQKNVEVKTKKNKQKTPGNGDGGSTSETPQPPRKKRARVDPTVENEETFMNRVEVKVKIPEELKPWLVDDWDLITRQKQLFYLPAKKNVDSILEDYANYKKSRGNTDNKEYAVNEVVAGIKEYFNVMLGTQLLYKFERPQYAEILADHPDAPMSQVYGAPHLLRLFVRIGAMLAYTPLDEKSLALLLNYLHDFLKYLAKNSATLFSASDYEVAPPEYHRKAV

Biological target: FLAG-HA-double tagged PALB2 (human) (UniProt Q86YC2)
Test: affinity purification with mass spectrometry; tandem affinity purification (FLAG, HA) of tagged PALB2 from MNase-solubilized (90 min) nuclear fraction of HeLa S3 cells, LC-MS/MS; cells untreated or treated with hydroxyurea or mitomycin C

binding: binds
Substance: MRG15 (from UniProt Q9UBU8 1-362)
